Measurements reported in PubChem BioAssay AID1159584 (Peter MacCallum Cancer Centre, 2016).
In all, the deposit lists about 18,000 reagents; below is a part drawn at random. Not all columns of the deposit are shown. Not given: the amount of reagent, the time to read-out.

Assay: 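Genes that CDH1-null MCF10A cells selectively depend on to survive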 (primary screen)
Cell system: human MCF10A breast epithelial cells, parental and CDH1-null
Reagent: siRNA against human genes
Read-out: 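Cell viability by CellTiter-Glo ATP luminescence, each line scaled to the mean of mock wells across plates, then CDH1-null over parental ratio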
Scale: CDH1-null / parental viability ratio: higher = CDH1-null cells survive relatively better than parental; CDH1-null viability vs mock: higher = more viable CDH1-null cells

SLC35E2A (GeneID 9906) [SID135621403] showed CDH1-null / parental viability ratio 0.77; CDH1-null viability vs mock (fraction of mock) = 0.49.
Silencing of NMB (GeneID 4828) [SID134310186] resulted in: CDH1-null / parental viability ratio 0.82; CDH1-null viability vs mock (fraction of mock) = 0.41.
After knock-down of CRIM1 (GeneID 51232) [SID134313362], the record shows CDH1-null / parental viability ratio 1.04; CDH1-null viability vs mock (fraction of mock) = 0.85.
Silencing of AJUBA (GeneID 84962) [SID134325049] came out at: CDH1-null / parental viability ratio 0.89; CDH1-null viability vs mock (fraction of mock) = 1.06.
Against PYDC1 (GeneID 260434) [SID152155134], the entry reads CDH1-null / parental viability ratio 0.87; CDH1-null viability vs mock (fraction of mock) = 0.78.
Against CD5L (GeneID 922) [SID134312787], the values are CDH1-null / parental viability ratio 0.98; CDH1-null viability vs mock (fraction of mock) = 0.84.
After knock-down of PDHX (GeneID 8050) [SID134314468] the results were CDH1-null / parental viability ratio 1.06; CDH1-null viability vs mock (fraction of mock) = 0.72.
Against SLFN12 (GeneID 55106) [SID135623460], the values are CDH1-null / parental viability ratio 0.89; CDH1-null viability vs mock (fraction of mock) = 0.74.
With knock-down of TAAR1 (GeneID 134864) [SID152147864] the results were CDH1-null / parental viability ratio 0.79; CDH1-null viability vs mock (fraction of mock) = 0.84.
For KRTDAP (GeneID 388533) [SID134329544], the values are CDH1-null / parental viability ratio 0.79; CDH1-null viability vs mock (fraction of mock) = 0.45.
With knock-down of ZFR2 (GeneID 23217) [SID135624421] the results were CDH1-null / parental viability ratio 1; CDH1-null viability vs mock (fraction of mock) = 0.72.
Against LCAT (GeneID 3931) [SID134314352], the values are CDH1-null / parental viability ratio 1.11; CDH1-null viability vs mock (fraction of mock) = 0.91.
Depletion of RAB5A (GeneID 5868) [SID134310226] resulted in: CDH1-null / parental viability ratio 0.75; CDH1-null viability vs mock (fraction of mock) = 0.55.
Against LMNTD1 (GeneID 160492) [SID134320831], the entry reads CDH1-null / parental viability ratio 0.86; CDH1-null viability vs mock (fraction of mock) = 0.69.
Depletion of DDX3X (GeneID 1654) [SID135621266] came out at: CDH1-null / parental viability ratio 1.03; CDH1-null viability vs mock (fraction of mock) = 0.64.
PSD2 (GeneID 84249) [SID152147946] scored CDH1-null / parental viability ratio 0.84; CDH1-null viability vs mock (fraction of mock) = 0.66.
TDRD6 (GeneID 221400) [SID152156591] showed CDH1-null / parental viability ratio 0.8; CDH1-null viability vs mock (fraction of mock) = 0.57.
Knock-down of AARS2 (GeneID 57505) [SID152151802] resulted in: CDH1-null / parental viability ratio 1.05; CDH1-null viability vs mock (fraction of mock) = 0.9.
Knock-down of RHBDL2 (GeneID 54933) [SID152156285] resulted in: CDH1-null / parental viability ratio 1.07; CDH1-null viability vs mock (fraction of mock) = 0.73.
TRIM35 (GeneID 23087) [SID152154624] showed CDH1-null / parental viability ratio 0.93; CDH1-null viability vs mock (fraction of mock) = 0.64.

Only “CDH1-null viability vs mock (fraction of mock)” (8 entries from above):
CRIM1 (GeneID 51232) [SID134313362] = 0.85
AJUBA (GeneID 84962) [SID134325049] = 1.06
PYDC1 (GeneID 260434) [SID152155134] = 0.78
CD5L (GeneID 922) [SID134312787] = 0.84
PDHX (GeneID 8050) [SID134314468] = 0.72
SLFN12 (GeneID 55106) [SID135623460] = 0.74
TAAR1 (GeneID 134864) [SID152147864] = 0.84
KRTDAP (GeneID 388533) [SID134329544] = 0.45

Further entries follow:
Silencing of ANGPT2 (GeneID 285) [SID135621179] came out at: CDH1-null / parental viability ratio 0.93; CDH1-null viability vs mock (fraction of mock) = 0.78.
For B3GALT5 (GeneID 10317) [SID134316449], the entry reads CDH1-null / parental viability ratio 0.93; CDH1-null viability vs mock (fraction of mock) = 0.76.
ANXA3 (GeneID 306) [SID152146960] showed CDH1-null / parental viability ratio 0.69; CDH1-null viability vs mock (fraction of mock) = 0.62.
WNT4 (GeneID 54361) [SID152151801] showed CDH1-null / parental viability ratio 1.18; CDH1-null viability vs mock (fraction of mock) = 0.6.
After knock-down of EGR2 (GeneID 1959) [SID134311851] the results were CDH1-null / parental viability ratio 1.1; CDH1-null viability vs mock (fraction of mock) = 0.92.
After knock-down of TMEM39A (GeneID 55254) [SID152154345], the screen gave CDH1-null / parental viability ratio 1.14; CDH1-null viability vs mock (fraction of mock) = 0.82.
For PYCR3 (GeneID 65263) [SID135622705], the entry reads CDH1-null / parental viability ratio 1.06; CDH1-null viability vs mock (fraction of mock) = 1.12.
With knock-down of PIP (GeneID 5304) [SID134310667] the results were CDH1-null / parental viability ratio 1.16; CDH1-null viability vs mock (fraction of mock) = 0.66.
Against NAA25 (GeneID 80018) [SID134318670] the deposit lists CDH1-null / parental viability ratio 0.97; CDH1-null viability vs mock (fraction of mock) = 0.64.
TMX4 (GeneID 56255) [SID134315209] scored CDH1-null / parental viability ratio 0.9; CDH1-null viability vs mock (fraction of mock) = 0.66.
Against FBXW8 (GeneID 26259) [SID135622320], the values are CDH1-null / parental viability ratio 0.98; CDH1-null viability vs mock (fraction of mock) = 0.89.
PPP1R3A (GeneID 5506) [SID134315032] showed CDH1-null / parental viability ratio 1.28; CDH1-null viability vs mock (fraction of mock) = 0.83.
Depletion of OC90 (GeneID 729330) [SID135625566] came out at: CDH1-null / parental viability ratio 0.99; CDH1-null viability vs mock (fraction of mock) = 0.83.
CFAP52 (GeneID 146845) [SID135623586] showed CDH1-null / parental viability ratio 1.07; CDH1-null viability vs mock (fraction of mock) = 0.92.
For MAML3 (GeneID 55534) [SID152154042], the entry reads CDH1-null / parental viability ratio 1.06; CDH1-null viability vs mock (fraction of mock) = 0.56.
After knock-down of TRNT1 (GeneID 51095) [SID152152814] the results were CDH1-null / parental viability ratio 0.81; CDH1-null viability vs mock (fraction of mock) = 0.68.
Depletion of TC2N (GeneID 123036) [SID135623501] gave: CDH1-null / parental viability ratio 0.94; CDH1-null viability vs mock (fraction of mock) = 1.
With knock-down of DENND2C (GeneID 163259) [SID152150709], the record shows CDH1-null / parental viability ratio 0.87; CDH1-null viability vs mock (fraction of mock) = 0.84.
Knock-down of RNF24 (GeneID 11237) [SID134312069] gave: CDH1-null / parental viability ratio 0.77; CDH1-null viability vs mock (fraction of mock) = 0.68.
SEMA5A (GeneID 9037) [SID135623756] showed CDH1-null / parental viability ratio 1.26; CDH1-null viability vs mock (fraction of mock) = 0.48.
With knock-down of CFAP69 (GeneID 79846) [SID152155724], the record shows CDH1-null / parental viability ratio 1.12; CDH1-null viability vs mock (fraction of mock) = 0.9.
Against SLC34A1 (GeneID 6569) [SID152152125], the entry reads CDH1-null / parental viability ratio 0.84; CDH1-null viability vs mock (fraction of mock) = 0.76.
Silencing of AK5 (GeneID 26289) [SID56478914] gave: CDH1-null / parental viability ratio 0.89; CDH1-null viability vs mock (fraction of mock) = 0.8.
B3GALNT2 (GeneID 148789) [SID135623196] gave CDH1-null / parental viability ratio 1.01; CDH1-null viability vs mock (fraction of mock) = 0.99.
CDX2 (GeneID 1045) [SID134319666] scored CDH1-null / parental viability ratio 1.01; CDH1-null viability vs mock (fraction of mock) = 0.88.
